Experimental data from publication PMC6639074.

Chains of the proteins cited; added tags and fusions are not shown. Lines headed by an entry give the natural chain unless they say otherwise; changes in a name come on top.
UniProt P61019: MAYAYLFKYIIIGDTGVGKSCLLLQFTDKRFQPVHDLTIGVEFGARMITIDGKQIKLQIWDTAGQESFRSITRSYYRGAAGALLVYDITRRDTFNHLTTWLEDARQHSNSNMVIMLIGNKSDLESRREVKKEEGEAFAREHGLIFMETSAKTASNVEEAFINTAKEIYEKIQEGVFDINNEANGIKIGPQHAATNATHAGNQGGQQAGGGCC

B1: SH3BP5 (protein, UniProt O60239 1-455)
chain: MDAALKRSRSEEPAEILPPARDEEEEEEEGMEQGLEEEEEVDPRIQGELEKLNQSTDDINRRETELEDARQKFRSVLVEATVKLDELVKKIGKAVEDSKPYWEARRVARQAQLEAQKATQDFQRATEVLRAAKETISLAEQRLLEDDKRQFDSAWQEMLNHATQRVMEAEQTKTRSELVHKETAARYNAAMGRMRQLEKKLKRAINKSKPYFELKAKYYVQLEQLKKTVDDLQAKLTLAKGEYKMALKNLEMISDEIHERRRSSAMGPRGCGVGAEGSSTSVEDLPGSKPEPDAISVASEAFEDDSCSNFVSEDDSETQSVSSFSSGPTSPSEMPDQFPAVVRPGSLDLPSPVSLSEFGMMFPVLGPRSECSGASSPECEVERGDRAEGAENKTSDKANNNRGLSSSSGSGGSSKSQSSTSPEGQALENRMKQLSLQCSKGRDGIIADIKMVQIG
B2: SH3BP5L (protein, UniProt Q7L8J4 1-393)
chain: MAELRQVPGGRETPQGELRPEVVEDEVPRSPVAEEPGGGGSSSSEAKLSPREEEELDPRIQEELEHLNQASEEINQVELQLDEARTTYRRILQESARKLNTQGSHLGSCIEKARPYYEARRLAKEAQQETQKAALRYERAVSMHNAAREMVFVAEQGVMADKNRLDPTWQEMLNHATCKVNEAEEERLRGEREHQRVTRLCQQAEARVQALQKTLRRAIGKSRPYFELKAQFSQILEEHKAKVTELEQQVAQAKTRYSVALRNLEQISEQIHARRRGGLPPHPLGPRRSSPVGAEAGPEDMEDGDSGIEGAEGAGLEEGSSLGPGPAPDTDTLSLLSLRTVASDLQKCDSVEHLRGLSDHVSLDGQELGTRSGGRRGSDGGARGGRHQRSVSL
B3: CHML (protein, UniProt P26374 1-656)
chain: MADNLPTEFDVVIIGTGLPESILAAACSRSGQRVLHIDSRSYYGGNWASFSFSGLLSWLKEYQQNNDIGEESTVVWQDLIHETEEAITLRKKDETIQHTEAFCYASQDMEDNVEEIGALQKNPSLGVSNTFTEVLDSALPEESQLSYFNSDEMPAKHTQKSDTEISLEVTDVEESVEKEKYCGDKTCMHTVSDKDGDKDESKSTVEDKADEPIRNRITYSQIVKEGRRFNIDLVSKLLYSQGLLIDLLIKSDVSRYVEFKNVTRILAFREGKVEQVPCSRADVFNSKELTMVEKRMLMKFLTFCLEYEQHPDEYQAFRQCSFSEYLKTKKLTPNLQHFVLHSIAMTSESSCTTIDGLNATKNFLQCLGRFGNTPFLFPLYGQGEIPQGFCRMCAVFGGIYCLRHKVQCFVVDKESGRCKAIIDHFGQRINAKYFIVEDSYLSEETCSNVQYKQISRAVLITDQSILKTDLDQQTSILIVPPAEPGACAVRVTELCSSTMTCMKDTYLVHLTCSSSKTAREDLESVVKKLFTPYTETEINEEELTKPRLLWALYFNMRDSSGISRSSYNGLPSNVYVCSGPDCGLGNEHAVKQAETLFQEIFPTEEFCPPPPNPEDIIFDGDDKQPEAPGTNNVVMAKLESSEESKNLESPEKHLQN
B4: ICA1 (protein, UniProt Q05084 1-483)
chain: MSGHKCSYPWDLQDRYAQDKSVVNKMQQKYWETKQAFIKATGKKEDEHVVASDADLDAKLELFHSIQRTCLDLSKAIVLYQKRICFLSQEENELGKFLRSQGFQDKTRAGKMMQATGKALCFSSQQRLALRNPLCRFHQEVETFRHRAISDTWLTVNRMEQCRTEYRGALLWMKDVSQELDPDLYKQMEKFRKVQTQVRLAKKNFDKLKMDVCQKVDLLGASRCNLLSHMLATYQTTLLHFWEKTSHTMAAIHESFKGYQPYEFTTLKSLQDPMKKLVEKEEKKKINQQESTDAAVQEPSQLISLEEENQRKESSSFKTEDGKSILSALDKGSTHTACSGPIDELLDMKSEEGACLGPVAGTPEPEGADKDDLLLLSEIFNASSLEEGEFSKEWAAVFGDGQVKEPVPTMALGEPDPKAQTGSGFLPSQLLDQNMKDLQASLQEPAKAASDLTAWFSLFADLDPLSNPDAVGKTDKEHELLNA
B5: BLZF1/golgin45 (protein, UniProt Q9H2G9 1-400)
chain: MTTKNLETKVTVTSSPIRGAGDGMETEEPPKSVEVTSGVQSRKHHSLQSPWKKAVPSESPGVLQLGKMLTEKAMEVKAVRILVPKAAITHDIPNKNTKVKSLGHHKGEFLGQSEGVIEPNKELSEVKNVLEKLKNSERRLLQDKEGLSNQLRVQTEVNRELKKLLVASVGDDLQYHFERLAREKNQLILENEALGRNTAQLSEQLERMSIQCDVWRSKFLASRVMADELTNSRAALQRQNRDAHGAIQDLLSEREQFRQEMIATQKLLEELLVSLQWGREQTYSPSVQPHSTAELALTNHKLAKAVNSHLLGNVGINNQKKIPSTVEFCSTPAEKMAETVLRILDPVTCKESSPDNPFFESSPTTLLATKKNIGRFHPYTRYENITFNCCNHCRGELIAL
B6: USO1/p115 (protein, UniProt O60763 1-962)
chain: MNFLRGVMGGQSAGPQHTEAETIQKLCDRVASSTLLDDRRNAVRALKSLSKKYRLEVGIQAMEHLIHVLQTDRSDSEIIGYALDTLYNIISNEEEEEVEENSTRQSEDLGSQFTEIFIKQQENVTLLLSLLEEFDFHVRWPGVKLLTSLLKQLGPQVQQIILVSPMGVSRLMDLLADSREVIRNDGVLLLQALTRSNGAIQKIVAFENAFERLLDIISEEGNSDGGIVVEDCLILLQNLLKNNNSNQNFFKEGSYIQRMKPWFEVGDENSGWSAQKVTNLHLMLQLVRVLVSPTNPPGATSSCQKAMFQCGLLQQLCTILMATGVPADILTETINTVSEVIRGCQVNQDYFASVNAPSNPPRPAIVVLLMSMVNERQPFVLRCAVLYCFQCFLYKNQKGQGEIVSTLLPSTIDATGNSVSAGQLLCGGLFSTDSLSNWCAAVALAHALQENATQKEQLLRVQLATSIGNPPVSLLQQCTNILSQGSKIQTRVGLLMLLCTWLSNCPIAVTHFLHNSANVPFLTGQIAENLGEEEQLVQGLCALLLGISIYFNDNSLESYMKEKLKQLIEKRIGKENFIEKLGFISKHELYSRASQKPQPNFPSPEYMIFDHEFTKLVKELEGVITKAIYKSSEEDKKEEEVKKTLEQHDNIVTHYKNMIREQDLQLEELRQQVSTLKCQNEQLQTAVTQQVSQIQQHKDQYNLLKIQLGKDNQHQGSYSEGAQMNGIQPEEIGRLREEIEELKRNQELLQSQLTEKDSMIENMKSSQTSGTNEQSSAIVSARDSEQVAELKQELATLKSQLNSQSVEITKLQTEKQELLQKTEAFAKSVEVQGETETIIATKTTDVEGRLSALLQETKELKNEIKALSEERTAIKEQLDSSNSTIAILQTEKDKLELEITDSKKEQDDLLVLLADQDQKILSLKNKLKDLGHPVEEEDELESGDQEDEDDESEDPGKDLDHI
B7: STAMBPL1 (protein, UniProt Q96FJ0 1-436)
chain: MDQPFTVNSLKKLAAMPDHTDVSLSPEERVRALSKLGCNITISEDITPRRYFRSGVEMERMASVYLEEGNLENAFVLYNKFITLFVEKLPNHRDYQQCAVPEKQDIMKKLKEIAFPRTDELKNDLLKKYNVEYQEYLQSKNKYKAEILKKLEHQRLIEAERKRIAQMRQQQLESEQFLFFEDQLKKQELARGQMRSQQTSGLSEQIDGSALSCFSTHQNNSLLNVFADQPNKSDATNYASHSPPVNRALTPAATLSAVQNLVVEGLRCVVLPEDLCHKFLQLAESNTVRGIETCGILCGKLTHNEFTITHVIVPKQSAGPDYCDMENVEELFNVQDQHDLLTLGWIHTHPTQTAFLSSVDLHTHCSYQLMLPEAIAIVCSPKHKDTGIFRLTNAGMLEVSACKKKGFHPHTKEPRLFSICKHVLVKDIKIIVLDLR
B8: FAM184A (protein, UniProt Q8NB25 1-1140)
chain: MATPGMSWQQHYYGGSAAKFAPSPATAQLAGHSMDYSQEMHLKMSKKIAQLTKVIYALNTKNDEHESAIQALKDAHEEEIQQILAETREKILQYKSKVTEELDLRRKIQVLESSLEDHIKMKQQALTEFEAYKHRVEDMQLCAEAQHVQRIVTMSREVEEIRRKFEEKLRSFGQLQVQFEKDKRLALEDLQAAHRREIQELLKSQQDHSASVNKGQEKAEELHRMEVESLNKMLEELRLERKKLIEDYEGKLNKAQSFYERELDTLKRSQLFTAESLQASKEKEADLRKEFQGQEAILRKTIGKLKTELQMVQDEAGSLLDKCQKLQTALAIAENNVQVLQKQLDDAKEGEMALLSKHKEVESELAAARERLQQQASDLVLKASHIGMLQATQMTQEVTIKDLESEKSRVNERLSQLEEERAFLRSKTQSLDEEQKQQILELEKKVNEAKRTQQEYYERELKNLQSRLEEEVTQLNEAHSKTLEELAWKHHMAIEAVHSNAIRDKKKLQMDLEEQHNKDKLNLEEDKNQLQQELENLKEVLEDKLNTANQEIGHLQDMVRKSEQGLGSAEGLIASLQDSQERLQNELDLTKDSLKETKDALLNVEGELEQERQQHEETIAAMKEEEKLKVDKMAHDLEIKWTENLRQECSKLREELRLQHEEDKKSAMSQLLQLKDREKNAARDSWQKKVEDLLNQISLLKQNLEIQLSQSQTSLQQLQAQFTQERQRLTQELEELEEQHQQRHKSLKEAHVLAFQTMEEEKEKEQRALENHLQQKHSAELQSLKDAHRESMEGFRIEMEQELQTLRFELEDEGKAMLASLRSELNHQHAAAIDLLRHNHHQELAAAKMELERSIDISRRQSKEHICRITDLQEELRHREHHISELDKEVQHLHENISALTKELEFKGKEILRIRSESNQQIRLHEQDLNKRLEKELDVMTADHLREKNIMRADFNKTNELLKEINAALQVSLEEMEEKYLMRESKPEDIQMITELKAMLTERDQIIKKLIEDNKFYQLELVNRETNFNKVFNSSPTVGVINPLAKQKKKNDKSPTNRFVSVPNLSALESGGVGNGHPNRLDPIPNSPVHDIEFNSSKPLPQPVPPKGPKTFLSPAQSEASPVASPDPQRQEWFARYFTF

Biological target: Rab11A(S25N)-BirA*-HA-MAO (human)
Test: proximity labelling; MitoID: GTPase-BirA*-HA-MAO chimera on mitochondria of transiently transfected HEK293T cells, 50 uM biotin 18 h, streptavidin beads, mass spectrometry, biological triplicates; hits by WD scores and volcano plots against the GDP-locked forms

binding, binds:
B1, B2, B3

Biological target: Rab2A(Q65L)-BirA*-HA-MAO (human) (UniProt P61019)
Test: as above

binding, binds:
B4, B5, B6, B7, B8

These are yes or no findings as the source states them, for the method shown. Binding seen in cells or lysates may run through a third protein. Here binding means that the protein was enriched with, or labelled near, the bait; the list need not be complete. For some assays here: Where a sequence is shown, tags or fusion partners need not be part of it.
